Experimental data: PubChem BioAssay AID1259405 (NCATS, 2018)

Aim: 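Mouse-designed siRNAs used to find CHO productivity engineering targets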 (primary screen)
Cell system: Chinese hamster CHO-K1 ovary cells with stable secreted eGFP expression
Reagents: single siRNA against mouse genes, 0.8 pmol siRNA per well (2 µl of 400 nM stock)
Time to read-out: 3 days
Measurement: 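Per-well intracellular GFP measured by laser scanning cytometry, plus viability from ATP luminescence, each relative to plate median of non-targeting control wells, in %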
Direction: GFP, % of control: higher = more GFP per well, higher productivity; viability (ATP), % of control: higher = more viable cells (more ATP)
Active means: 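Called active when intracellular GFP, relative to negative control, is at or above 120%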
This is a random part of about 50,000 reagents. About 4,000 of all reagents (8%) count as active. 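Mouse siRNA library applied to hamster cells; one well for each siRNA.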 Entries without a mark were called inactive. Reagents against one gene are numbered here.

Target gene | siRNA no. | GFP, % of control | viability (ATP), % of control
Snai3 | 1 | 103 | 67
Snai3 | 2 | 61.4 | 60.2
Snai3 | 3 | 96.6 | 76.5
Foxf1 | 1 | 61.8 | 105
Foxf1 | 2 | 75.2 | 97
Actl11 | 1 | 74.8 | 86
Actl11 | 2 | 67.5 | 75
Actl11 | 3 | 32 | 76.1
Fam243 | 1 | 96.4 | 67.4
Fam243 | 2 | 94.2 | 69.8
Fam243 | 3 | 87.2 | 76.7
Gpr83 | 1 | 68.5 | 76.4
Gpr83 | 2 | 65.2 | 73.5
Gpr83 | 3 | 77.8 | 79.8
Smagp | 1 | 99.5 | 91.9
Smagp | 2 | 120 (active) | 117
Smagp | 3 | 128 (active) | 135
Npepl1 | 1 | 76.8 | 76.2
Npepl1 | 2 | 73.5 | 81.2
Npepl1 | 3 | 37 | 46.9
Krtap13-20 | 1 | 65.5 | 66.3
Krtap13-20 | 2 | 83.2 | 57
Krtap13-20 | 3 | 67.9 | 88.1
Cxcl17 | 1 | 86.5 | 91
Cxcl17 | 2 | 67.1 | 56.6
Cxcl17 | 3 | 143 (active) | 159
Lrrc8c | 1 | 68.5 | 90.2
Lrrc8c | 2 | 102 | 100
Lrrc8c | 3 | 83.7 | 82.7
Blcap | 1 | 45.6 | 81.7
Blcap | 2 | 86.8 | 66.9
Blcap | 3 | 136 (active) | 134
Rpa3 | 1 | 66.2 | 65.1
Rpa3 | 2 | 42.2 | 51.1
Rpa3 | 3 | 74.9 | 86.6
Sgta | 1 | 77.2 | 96.9
Sgta | 2 | 82.8 | 82.6
Fbxl9 | 1 | 74.3 | 57.4
Fbxl9 | 2 | 54.7 | 46.3
Fbxl9 | 3 | 59.7 | 73.6
Shroom2 | 1 | 100 | 78.6
Shroom2 | 2 | 51.4 | 69.4
Bik | 1 | 82.7 | 82.4
Bik | 2 | 60.3 | 85.1
Slc16a10 | 1 | 76.7 | 74.3
Slc16a10 | 2 | 99.9 | 87.3
Slc16a10 | 3 | 84.4 | 77.3
Fyn | 1 | 76.2 | 58.8
Tmprss11g | 1 | 85.6 | 83.7
Tmprss11g | 2 | 55.7 | 98.9
Tmprss11g | 3 | 63.8 | 102
Draxin | 1 | 110 | 99.1
Draxin | 2 | 86.8 | 47.8
Draxin | 3 | 65.4 | 60.1
Tmem140 | 1 | 96.6 | 112
Tmem140 | 2 | 81.6 | 85.1
Tmem140 | 3 | 48.6 | 95.6
